Consider 60 compounds from PubChem BioAssay AID2685 (National Center for Advancing Translational Sciences (NCATS), 2010).

A short description of the assay: qHTS Assay for Lipid Storage Modulators in Drosophila S3 Cells.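 For cell number change: cells counted by Cell Tracker Red CMTPX staining in the red channel.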 Conditions: BODIPY lipid droplet fluorescence, 18-24 h; for cell number change: measured here: cell count max response, cells fed with added oleic acid. An outline of the steps:
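Drosophila S3 cells got compounds at several concentrations plus oleic acid (400 uM solution). Laser-scanning cytometry with 488 nm excitation read lipid droplets at 500-530 nm and cells at 575-640 nm. Percent activity was relative to 20 uM Triacsin C.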

Where [1] appears, read: measured here: lipid fluorescence (Fed channel) AC50, cells fed with added oleic acid.
Setting [2] is: measured here: cell number channel AC50, cells fed with added oleic acid.

The other results are listed elsewhere or left out. Shown are side measurements of this screen, not its main read-out; they come without a call. Most of these compounds were active or inconclusive in the main read-out, so they are no random draw. Potencies come from curve fits of mixed quality, noted in brackets.

For the compound `Oc1ccc(-c2cnc(-c3ccc(O)cc3)nc2)cc1`, the cell number change is 4.94%. Moreover, under setting [1], the AC50 is 23.1 µM [rising, partial curve].

In the case of `CN(CC1COc2ccccc2O1)C(=O)c1cc(COc2c(F)cccc2F)on1` (stereo not drawn), the cell number change was -1.36%. For the same compound, under setting [1], the AC50 is 20.6 µM [falling, single point].

With `O=C(Nc1ccc(OC(F)(F)F)cc1)c1ccc2nccnc2c1`, the cell number change stood at 56.6%. In addition, the AC50 under setting [2] was 29.1 µM [rising, single point].

For the compound `O=C(Nc1cccc(-c2cn3cccnc3n2)c1)Nc1ccccc1F`, the cell number change was -5.65%.

In the case of `CCOc1ccc(N2C(=O)CC(SC(=NC)Nc3cccc(F)c3)C2=O)cc1` (stereo not drawn), the cell number change stood at 11.5%. The AC50 under setting [2] is 0.13 µM [rising, full curve].

For the compound `FC(F)(F)c1cc(-c2ccc(Cl)cc2)nc(NCc2cccnc2)n1`, the cell number change is -34.5%. Moreover, the AC50 under setting [2] was 0.92 µM [rising, partial curve]. The AC50 under setting [1] was 0.82 µM [rising, single point].

On to `Cc1ccc2c(Cl)cc(Cl)c(OCC(=O)NC(=O)NCc3ccco3)c2n1`, for which the cell number change was -6.21%.

Regarding `CCCN1CCC(N(C)CCc2ccc(OC)c(OC)c2)CC1`, the cell number change was 5.11%. Also, the AC50 under setting [1] was 0.00517 µM [rising, full curve, poor fit].

For `Cc1c(Cl)cccc1NC(=O)COc1ccc(S(=O)(=O)N2CCOCC2)cc1`, the cell number change worked out at 77.8%. Moreover, the AC50 under setting [2] was 0.082 µM [rising, full curve]. Also, the AC50 under setting [1] is 0.92 µM [rising, partial curve].

Consider `O=C(O)C1CCN(C(=O)CSc2nc3ccccc3c(=O)n2-c2ccc(Cl)cc2)CC1`, for which the cell number change was found to be 3.97%. The AC50 under setting [2] is 0.058 µM [rising, full curve, poor fit].

`Oc1ccc(-c2c(C3=CCCCC3)sc3ccccc23)cc1`: the cell number change is 0.971%. The AC50 under setting [2] is 6.51 µM [rising, single point].

For `CC(C(=O)Nc1ccc(S(=O)(=O)N2CCOCC2)cc1)N1CCN(c2ccccn2)CC1` (stereo not drawn), the cell number change was -0.601%.

Regarding `COCCn1nnnc1C(c1cccs1)N1CCN(c2cc(C)ccc2C)CC1` (stereo not drawn), the cell number change was 1.64%.

`O=C(NCCN1CCC(Cc2ccccc2)CC1)C1CCCN(S(=O)(=O)c2cnc[nH]2)C1` (stereo not drawn): the cell number change is -12.5%.

For the compound `CCc1ccc2[nH]cc(C(=O)N3CCCCCC3)c(=O)c2c1`, the cell number change is -7.28%. The AC50 under setting [1] was 4.61 µM [rising, partial curve, poor fit].

In the case of `CCN(Cc1nc2cc(Cl)ccc2c(=O)[nH]1)C(=O)c1cccc(NC(=O)c2cccs2)c1`, the cell number change was 21.2%. In addition, under setting [1], the AC50 was 13 µM [rising, partial curve].

On to `COc1ccccc1NC(=O)C1=C(C)NC(=O)NC1c1ccc(C)s1` (stereo not drawn), for which the cell number change came to 14.7%. The AC50 under setting [1] is 0.891 µM [rising, full curve, poor fit].

As to `CN(CC(=O)Nc1ccc(Cl)c(C(F)(F)F)c1)C(=O)c1ccc(OCC2CCCO2)cc1` (stereo not drawn), the cell number change is -6.56%. In addition, the AC50 under setting [1] was 0.58 µM [falling, single point].

In the case of `O=C(Nc1ccnn1C1CCN(C(=O)c2ccc(C(F)(F)F)cc2)CC1)C1CC1`, the cell number change came out at 30.4%. Moreover, the AC50 under setting [2] is 16.4 µM [rising, single point]. Further, the concentration at half-maximal activity (AC50) under setting [1] was 29.1 µM [falling, single point].

For `CC(C)=CCCC(C)CN1CCC(n2nccc2NC(=O)c2ccc3c(c2)OCO3)CC1` (stereo not drawn), the cell number change was determined as 68.6%. For the same compound, the AC50 under setting [2] is 29.1 µM [rising, single point]. In addition, the AC50 under setting [1] is 0.00651 µM [rising, full curve, poor fit].

Consider `CCC(=O)N1CCc2cc(S(=O)(=O)NCCC(=O)Nc3ccccc3C)ccc21`, for which the cell number change is -9.4%. In addition, under setting [1], the AC50 was 6.51 µM [falling, single point].

For the compound `COc1ccc(NC(=O)NNS(=O)(=O)c2ccc(Br)cc2)cc1`, the cell number change was found to be 53%. For the same compound, under setting [2], the AC50 is 16.4 µM [rising, single point]. For the same compound, under setting [1], the AC50 was 0.58 µM [rising, full curve, poor fit].

For `COc1cccc2c1C(=O)O/C2=C/c1ccc2c(c1)OCO2`, the cell number change is 29.2%. Also, the AC50 under setting [2] was 1.3 µM [rising, full curve]. Further, the concentration at half-maximal activity (AC50) under setting [1] is 0.651 µM [rising, full curve].

As to `COc1cc(/C=N/OCC(=O)Nc2cc(C)on2)ccc1OCc1ccccc1`, the cell number change amounted to 3.92%. For the same compound, under setting [1], the AC50 is 18.4 µM [rising, partial curve].

With `Cc1ccc(NC(=S)N/N=C/c2ccc([N+](=O)[O-])s2)cc1`, the cell number change was -10.3%. Also, the AC50 under setting [1] is 23.1 µM [falling, partial curve, poor fit].

On to `CCOC(=O)c1cc(C)n(-n2cnnc2)c1C`, for which the AC50 under setting [1] was 25.9 µM [falling, partial curve].

Take `O=C(CSc1nnc(Cc2ccccc2)o1)NCCc1ccccc1`: the cell number change came to 113%. Also, the AC50 under setting [2] was 29.1 µM [rising, single point]. Under setting [1], the half-maximal activity concentration (AC50) was 0.517 µM [falling, full curve].

Consider `CCn1cc(C(=O)NCCCOC)c(=O)c2cc(S(=O)(=O)N(C)C3CCCCC3)ccc21`, for which the cell number change is -18.3%. The AC50 under setting [1] is 32.6 µM [falling, single point].

Consider `COc1ccccc1NC(=O)COC(=O)[C@@H]1CCCN1C(=O)c1cccs1`, for which the cell number change is 21.7%.

Take `COc1cccc(NC(=O)CCNS(=O)(=O)c2cccc3nsnc23)c1`: the cell number change was -48.3%. Besides, under setting [1], the AC50 was 20.6 µM [falling, partial curve, poor fit].

For `Cc1nc(C)c(-c2ccc(SCC(=O)Nc3ccc(C)c(Cl)c3)nn2)s1`, the cell number change came to 79.8%. The AC50 under setting [2] was 16.4 µM [rising, partial curve]. In addition, the AC50 under setting [1] was 16.4 µM [rising, single point].

Regarding `COc1ccc(S(=O)(=O)N2CCCC(C(=O)Nc3cccnc3)C2)cc1Cl` (stereo not drawn), the cell number change is -37.1%. Further, the half-maximal activity concentration (AC50) under setting [2] is 9.2 µM [falling, partial curve, poor fit]. For the same compound, under setting [1], the AC50 is 14.6 µM [falling, partial curve].

Take `COC(=O)c1c(NC(=O)c2cnccn2)sc2c1CCC2`: the cell number change came to 3.76%. Besides, the half-maximal activity concentration (AC50) under setting [2] is 0.411 µM [rising, full curve]. Under setting [1], the AC50 was 0.291 µM [rising, partial curve, poor fit].

With `Cc1ccc(S(=O)(=O)NC(C)(C)CSc2nnc(Nc3ccccc3)s2)cc1`, the cell number change is -38.7%. In addition, the AC50 under setting [2] is 1.84 µM [falling, partial curve]. Further, the AC50 under setting [1] was 6.51 µM [rising, single point].

For `CC1CCC(NC(=O)c2cc3c(s2)CS(=O)(=O)C3)CC1` (stereo not drawn), the cell number change came to 11%. Moreover, the half-maximal activity concentration (AC50) under setting [1] was 1.64 µM [falling, partial curve, poor fit].

In the case of `CC1=Nn2c(nnc2-c2ccccc2Cl)SC1`, the cell number change was determined as 4.39%.

Consider `O=C(NC12CC3CC(CC(C3)C1)C2)C1CC(=O)N(c2ccc(Br)cc2)C1` (stereo not drawn), for which the cell number change was found to be 3.58%. Besides, the AC50 under setting [1] is 0.0651 µM [falling, full curve, poor fit].

With `O=C(c1ccc(F)cc1)N1CCCC(C(=O)N2CCc3ccccc3C2)C1` (stereo not drawn), the cell number change was -4.44%. In addition, the AC50 under setting [1] was 29.1 µM [falling, single point].

As for `CC(C(=O)NCCc1nc2ccccc2[nH]1)n1cc([N+](=O)[O-])cn1` (stereo not drawn), the cell number change is -31.4%. For the same compound, the AC50 under setting [1] is 0.116 µM [falling, full curve, poor fit].

Take `CCn1ncc(/C=N/N=C2\CCC3C4CCc5cc(O)ccc5C4CCC23C)c1C` (stereo not drawn): the concentration at half-maximal activity (AC50) under setting [2] is 1.84 µM [rising, partial curve] and the AC50 under setting [1] was 0.58 µM [rising, single point].

For `c1cc2c(cc1C1CCCCC1)c1c3n2CCN=C3CCC1`, the cell number change is -37.2%. Besides, the AC50 under setting [2] was 29.1 µM [falling, single point]. Further, the AC50 under setting [1] is 16.4 µM [falling, single point].

On to `O=C(CSc1nnc(NC(=O)C2CC2)s1)Nc1ccc(F)cc1`, for which the cell number change turned out to be 3.96%. Further, under setting [2], the AC50 was 6.51 µM [falling, single point].

Consider `O=C(O)CCCC(=O)N1CCN(c2cccc(Cl)c2)CC1`, for which the cell number change was -8.13%.

`O=C1CCC(=O)N1CCOP1(=O)COc2ccccc2OC1`: the cell number change was -0.164%. Also, the AC50 under setting [1] was 0.731 µM [falling, full curve].

Take `CC(C)Cc1nnc(NC(=O)CN2C(=O)NC3(CC(C)CC(C)(C)C3)C2=O)s1` (stereo not drawn): the cell number change came out at 40.5%. Also, under setting [2], the AC50 is 32.6 µM [rising, single point].

For the compound `CC(C)NCC(=O)Nc1c2c(nc3ccccc13)CCC2`, the cell number change is -7.16%. Also, the AC50 under setting [1] was 0.82 µM [falling, full curve, poor fit].

Turning to `Cc1cc(C)n(CC(=O)N/N=C/c2cccc([N+](=O)[O-])c2)n1`, the cell number change is -4.1%.

For `C/C(N)=C(/C#N)C(=O)COC(=O)c1ccncc1`, the cell number change was determined as 0.359%.

`Cc1cccc(Cc2nnc(NC(=O)c3cccc(S(=O)(=O)N4CCOCC4)c3)s2)c1`: under setting [1], the AC50 was 0.58 µM [rising, single point].

Regarding `Cc1nc2cc(S(=O)(=O)N3CCC(C(=O)O)CC3)ccc2n1C1CCCC1`, the cell number change stood at 0.719%.

For `Cc1ccc(C(C)NC(=O)Cc2cccs2)c(C)c1` (stereo not drawn), the cell number change came to 4.67%. In addition, the AC50 under setting [1] is 0.58 µM [rising, single point].

As to `CCOC(=O)c1c(NC(=O)Cc2cccs2)sc(C(=O)NC2CCCC2)c1C`, the cell number change came to 23.4%. The AC50 under setting [1] was 0.366 µM [rising, full curve].

Turning to `NC(=O)c1ccc[n+](CC(=O)c2ccc(Br)cc2)c1`, the cell number change is -24.5%. In addition, the AC50 under setting [1] was 6.51 µM [falling, full curve].

As for `O=C(N/N=C\c1cc(Cl)ccc1O)c1ccc(S(=O)(=O)N2CCCCC2)cc1`, the cell number change is -40.3%. Also, the AC50 under setting [2] is 18.4 µM [falling, single point]. Further, the AC50 under setting [1] is 18.4 µM [falling, single point].

On to `CCOC(=O)CC(=O)CSc1ncnc2c1nnn2-c1ccccc1`, for which the cell number change turned out to be 8.55%. The AC50 under setting [1] was 29.1 µM [rising, single point].

On to `COc1ccc(O)c(/C=N/NC(=O)CCC(=O)Nc2cccc(C)c2)c1`, for which the cell number change was -10.6%. Besides, the AC50 under setting [1] is 11.6 µM [falling, partial curve].

`COc1ccccc1-c1c(C)nn2c(N3CCN(c4ccccc4OC)CC3)cc(C)nc12`: the cell number change amounted to 12.2%.

As for `Cc1ccc(C)c(NC(=O)COC(=O)c2ccc3c(c2)OCCO3)c1`, the cell number change was -25.2%. In addition, under setting [1], the AC50 is 0.082 µM [falling, full curve].

As to `COc1ccc(C(=O)Nc2cc(C)on2)cc1`, the cell number change was 7.15%. For the same compound, the AC50 under setting [1] was 1.03 µM [rising, full curve, poor fit].

With `CCOC(=O)COc1cccc2c(=O)n(CC(=O)N3CCCCC3)ccc12`, the cell number change was 13.4%.
